Measurements as given in patent US20170327494A1, “NON-INVASIVE VENTILATION WITH HIGH FREQUENCY OSCILLATIONS” (KONINKLIJKE PHILIPS N.V., priority 2014, published 2017).
Read-outs that look alike come from different tables or passages of the source. Some entries share one result that the patent states for a list of compounds.

Legend:
[1] = tested on: Mycosphaerella arachidis (Cercospora arachidicola); test: Mycosphaerella arachidis (Cercospora arachidicola) / liquid culture (early leaf spot); assay type: cell-based; conditions: 200 ppm; liquid culture (PDB), growth inhibition determined photometrically 4-5 days after application
[2] = tested on: Blumeria raminis f. sp. tritici (Erysiphe raminis f. sp. tritici); test: Blumeria graminis f. sp. tritici / wheat / leaf disc preventative (powdery mildew on wheat); assay type: in vivo; conditions: 200 ppm; wheat leaf segments cv. Kanzler, inoculated 1 day after application, assessed 6-8 days after application, vs untreated
[3] = tested on: Botrvotinia fuckeliana (Botrvtis cinerea); test: Botryotinia fuckeliana (Botrytis cinerea) / liquid culture (gray mould); assay type: cell-based; conditions: 200 ppm; liquid culture (Vogels broth), growth inhibition determined photometrically 3-4 days after application
Fusarium culmorum = assay type: cell-based; conditions: 200 ppm
Gaeumannomyces graminis = Gaeumannomyces graminis / liquid culture (take-all of cereals); assay type: cell-based; conditions: 200 ppm; liquid culture (PDB), growth inhibition determined photometrically 4-5 days after application
[4] = tested on: Glomerella lacenarium (Colletotrichum lacenarium); test: Glomerella lagenarium (Colletotrichum lagenarium) / liquid culture (anthracnose); assay type: cell-based; conditions: 200 ppm; liquid culture (PDB), growth inhibition measured photometrically 3-4 days after application
[5] = tested on: Monocraphella nivalis (Microdochium nivale); test: Monographella nivalis (Microdochium nivale) / liquid culture (foot rot cereals); assay type: cell-based; conditions: 200 ppm; liquid culture (PDB), growth inhibition determined photometrically 4-5 days after application
[6] = tested on: Mycosphaerella raminicola (Septoria tritici); test: Mycosphaerella graminicola (Septoria tritici) / liquid culture (Septoria blotch); assay type: cell-based; conditions: 200 ppm; liquid culture (PDB), growth inhibition determined photometrically 4-5 days after application
Pyrenophora teres = Pyrenophora teres / barley / leaf disc preventative (net blotch); assay type: in vivo; conditions: 200 ppm; barley leaf segments cv. Hasso, inoculated 2 days after application, assessed 5-7 days after application, vs untreated
Alternaria solani = Alternaria solani / tomato / leaf disc (early blight); assay type: in vivo; conditions: 200 ppm; tomato leaf disks cv. Baby, inoculated 2 days after application, assessed 5-7 days after application, vs untreated
[7] = tested on: Thanatephorus cucumeris (Rhizoctonia solani); test: Thanatephorus cucumeris (Rhizoctonia solani) / liquid culture (foot rot, damping-off); assay type: cell-based; conditions: 200 ppm; liquid culture (PDB), growth inhibition determined photometrically 3-4 days after application
[8] = tested on: Magnaporthe grisea (Pyricularia oryzae); assay type: in vivo; conditions: 200 ppm; rice leaf segments cv. Ballila, inoculated 2 days after application, assessed 5-7 days after application, vs untreated

Measured: disease control

N#CC(=C1SCC(c2csc(-c3ccc(F)cc3)n2)S1)n1ccnc1 (racemic) [I.as.25]
at least 80%: [1]

Cn1cc(C2CSC(=C(C#N)n3ccnc3)S2)c(C(F)F)n1 (racemic) [I.ad.25]
at least 80%: [2] | [3] | Fusarium culmorum | Gaeumannomyces graminis | [4] | [5] | [1] | [6] | Pyrenophora teres

Cn1nc(C2CSC(=C(C#N)n3ccnc3)S2)c(Cl)c1Cl (racemic) [I.aa.25]
at least 80%: Alternaria solani | [2] | [3] | Fusarium culmorum | Gaeumannomyces graminis | [4] | [5] | [1] | [6] | Pyrenophora teres

N#CC(=C1SCC(c2cnn(-c3ccc(Cl)cc3)c2)S1)n1ccnc1 (racemic) [I.bb.25]
at least 80%: [2]

N#CC(=C1SCC(c2nc(Br)cs2)S1)n1ccnc1 (racemic) [I.an.25]
at least 80%: Pyrenophora teres

N#C/C(=C1/SCC(c2cc(Cl)sc2Cl)S1)n1ccnc1 (centres unmarked) [I.h.25, (2E)-2-[4-(2,5-dichloro-3-thienyl)-1,3-dithiolan-2-ylidene]-2-imidazol-1-yl-acetonitrile]
at least 80%: Fusarium culmorum; liquid culture (PDB), growth inhibition determined photometrically 3-4 days after application

Cn1nc(C(F)(F)F)c(Cl)c1C1CSC(=C(C#N)n2ccnc2)S1 (racemic) [I.x.25]
at least 80%: Alternaria solani | [2] | [3] | Fusarium culmorum | [4] | [5] | [1] | [6] | Pyrenophora teres | [7]

N#CC(=C1SCC(c2ccc(Cl)s2)S1)n1ccnc1 (racemic) [I.e.25]
at least 80%: Alternaria solani | [2] | [3] | Fusarium culmorum | Gaeumannomyces graminis | [4] | [5] | [1] | Pyrenophora teres | [7]

Cn1nc(C2CSC(=C(C#N)n3ccnc3)S2)c(Cl)c1C(F)(F)F (racemic) [I.y.25]
at least 80%: Alternaria solani | [2] | [3] | Fusarium culmorum | Gaeumannomyces graminis | [8] | [5] | [1] | [6] | Pyrenophora teres | [7]

Cn1nc(Cl)c(Cl)c1C1CSC(=C(C#N)n2ccnc2)S1 (racemic) [I.z.25]
at least 80%: [2] | [3] | Fusarium culmorum | Gaeumannomyces graminis | [4] | [8] | [5] | [1] | [6] | Pyrenophora teres | [7]
